One test addresses T1, Histone deacetylase 7 (Homo sapiens, UniProt Q8WUI4).
T1 sequence (Q8WUI4 whole entry): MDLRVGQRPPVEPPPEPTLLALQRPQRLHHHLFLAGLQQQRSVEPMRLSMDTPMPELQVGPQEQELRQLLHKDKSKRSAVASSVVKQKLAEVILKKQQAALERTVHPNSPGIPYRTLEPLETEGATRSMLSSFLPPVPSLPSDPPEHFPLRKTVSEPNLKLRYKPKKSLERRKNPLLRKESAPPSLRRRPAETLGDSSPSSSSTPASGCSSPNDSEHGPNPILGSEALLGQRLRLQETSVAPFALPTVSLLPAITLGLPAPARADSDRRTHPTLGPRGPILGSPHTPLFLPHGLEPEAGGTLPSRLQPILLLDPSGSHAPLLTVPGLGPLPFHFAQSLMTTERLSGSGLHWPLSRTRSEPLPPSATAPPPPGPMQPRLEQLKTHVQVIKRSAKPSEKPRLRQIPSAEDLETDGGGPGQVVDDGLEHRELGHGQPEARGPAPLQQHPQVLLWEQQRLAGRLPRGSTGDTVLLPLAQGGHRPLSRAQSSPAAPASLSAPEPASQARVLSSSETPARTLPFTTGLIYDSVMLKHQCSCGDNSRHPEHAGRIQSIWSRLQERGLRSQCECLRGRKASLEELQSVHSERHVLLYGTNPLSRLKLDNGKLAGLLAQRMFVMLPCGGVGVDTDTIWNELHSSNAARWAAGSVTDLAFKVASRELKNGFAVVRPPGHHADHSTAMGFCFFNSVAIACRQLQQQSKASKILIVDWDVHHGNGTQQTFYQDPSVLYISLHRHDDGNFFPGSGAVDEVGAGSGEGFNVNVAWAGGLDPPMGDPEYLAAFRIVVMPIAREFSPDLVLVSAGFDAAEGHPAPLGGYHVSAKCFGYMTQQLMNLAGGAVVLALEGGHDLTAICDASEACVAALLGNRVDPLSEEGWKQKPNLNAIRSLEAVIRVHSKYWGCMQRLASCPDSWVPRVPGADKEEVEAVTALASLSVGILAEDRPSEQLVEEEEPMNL
The test is described as follows: Inhibition of human recombinant N-terminal GST-tagged HDAC7 expressed in baculovirus infected insect cells preincubated for 2 hrs followed by Fluor-de-Lys substrate addition measured after 30 mins by fluorescence assay. It is filed as cell-based.

By UniProt entry, the sequences of proteins in these tests, tags left out. Where a name states a change or a piece, a line headed by the entry shows the natural chain unless it says otherwise.
UniProt P56524: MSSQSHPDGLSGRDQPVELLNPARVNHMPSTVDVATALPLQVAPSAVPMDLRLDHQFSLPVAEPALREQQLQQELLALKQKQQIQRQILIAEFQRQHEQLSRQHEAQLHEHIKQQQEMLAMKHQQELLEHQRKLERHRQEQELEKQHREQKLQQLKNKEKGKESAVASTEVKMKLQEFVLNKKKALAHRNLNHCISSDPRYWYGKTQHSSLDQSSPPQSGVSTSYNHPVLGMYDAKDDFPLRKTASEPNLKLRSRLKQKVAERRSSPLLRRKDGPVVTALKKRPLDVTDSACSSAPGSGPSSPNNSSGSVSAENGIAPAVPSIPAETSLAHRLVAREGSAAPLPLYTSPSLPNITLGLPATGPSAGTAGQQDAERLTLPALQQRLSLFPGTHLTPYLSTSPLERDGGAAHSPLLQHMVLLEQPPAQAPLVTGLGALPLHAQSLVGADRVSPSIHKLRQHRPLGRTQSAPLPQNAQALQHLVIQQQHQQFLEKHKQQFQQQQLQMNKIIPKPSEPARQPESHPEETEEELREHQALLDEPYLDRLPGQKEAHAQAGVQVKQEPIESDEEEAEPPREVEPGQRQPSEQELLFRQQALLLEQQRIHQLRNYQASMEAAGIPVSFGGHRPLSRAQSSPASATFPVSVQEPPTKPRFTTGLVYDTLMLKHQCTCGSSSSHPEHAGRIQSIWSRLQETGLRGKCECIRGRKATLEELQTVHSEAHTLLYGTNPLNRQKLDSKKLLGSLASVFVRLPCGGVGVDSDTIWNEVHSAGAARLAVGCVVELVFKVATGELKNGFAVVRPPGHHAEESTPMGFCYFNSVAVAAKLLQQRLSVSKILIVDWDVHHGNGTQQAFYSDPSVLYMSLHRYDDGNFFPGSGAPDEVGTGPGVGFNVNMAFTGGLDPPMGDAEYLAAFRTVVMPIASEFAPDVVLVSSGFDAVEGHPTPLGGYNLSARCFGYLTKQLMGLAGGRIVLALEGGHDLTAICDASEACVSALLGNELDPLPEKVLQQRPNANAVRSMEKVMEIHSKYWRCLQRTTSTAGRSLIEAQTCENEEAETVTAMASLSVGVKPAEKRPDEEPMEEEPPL
UniProt Q9UQL6: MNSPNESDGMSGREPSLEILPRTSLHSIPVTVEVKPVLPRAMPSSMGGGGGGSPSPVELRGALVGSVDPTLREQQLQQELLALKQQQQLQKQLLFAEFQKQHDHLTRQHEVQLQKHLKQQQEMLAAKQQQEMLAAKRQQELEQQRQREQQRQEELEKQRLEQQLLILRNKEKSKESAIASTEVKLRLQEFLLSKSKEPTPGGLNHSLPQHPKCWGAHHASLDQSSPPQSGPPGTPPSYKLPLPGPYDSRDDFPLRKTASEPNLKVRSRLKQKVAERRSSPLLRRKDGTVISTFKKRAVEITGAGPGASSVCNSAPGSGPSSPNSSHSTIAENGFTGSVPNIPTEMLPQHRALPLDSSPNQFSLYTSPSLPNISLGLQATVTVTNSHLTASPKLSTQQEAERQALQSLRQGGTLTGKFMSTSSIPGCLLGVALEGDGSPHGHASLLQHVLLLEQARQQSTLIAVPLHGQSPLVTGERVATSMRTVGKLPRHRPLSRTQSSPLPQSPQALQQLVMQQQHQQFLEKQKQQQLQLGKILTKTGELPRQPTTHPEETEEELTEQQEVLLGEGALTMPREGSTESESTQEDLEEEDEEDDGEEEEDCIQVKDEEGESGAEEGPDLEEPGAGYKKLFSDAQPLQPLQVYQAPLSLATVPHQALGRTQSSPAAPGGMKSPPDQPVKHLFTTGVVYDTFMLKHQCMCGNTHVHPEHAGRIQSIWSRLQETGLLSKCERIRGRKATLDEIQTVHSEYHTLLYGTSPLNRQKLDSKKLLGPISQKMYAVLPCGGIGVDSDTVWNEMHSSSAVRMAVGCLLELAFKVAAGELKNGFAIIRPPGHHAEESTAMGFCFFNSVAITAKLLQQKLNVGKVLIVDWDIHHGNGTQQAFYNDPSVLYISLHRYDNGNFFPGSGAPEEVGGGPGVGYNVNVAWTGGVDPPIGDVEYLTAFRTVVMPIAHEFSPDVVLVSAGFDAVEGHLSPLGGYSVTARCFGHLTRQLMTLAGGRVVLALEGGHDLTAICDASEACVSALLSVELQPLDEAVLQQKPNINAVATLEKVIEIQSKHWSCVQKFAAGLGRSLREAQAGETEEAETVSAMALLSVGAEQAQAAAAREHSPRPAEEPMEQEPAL

A further test deals with Histone deacetylase 4 (Homo sapiens, UniProt P56524). The test is described as follows: Inhibition of human recombinant N-terminal GST-tagged/C-terminal His-tagged HDAC4 expressed in baculovirus infected insect cells preincubated for 2 hrs followed by Fluor-de-Lys substrate addition measured after 30 mins by fluorescence assay. The test is classed as cell-based.
A further test concerns the target T2, Histone deacetylase 8 (Homo sapiens, UniProt Q9BY41).
T2 sequence (Q9BY41 whole entry): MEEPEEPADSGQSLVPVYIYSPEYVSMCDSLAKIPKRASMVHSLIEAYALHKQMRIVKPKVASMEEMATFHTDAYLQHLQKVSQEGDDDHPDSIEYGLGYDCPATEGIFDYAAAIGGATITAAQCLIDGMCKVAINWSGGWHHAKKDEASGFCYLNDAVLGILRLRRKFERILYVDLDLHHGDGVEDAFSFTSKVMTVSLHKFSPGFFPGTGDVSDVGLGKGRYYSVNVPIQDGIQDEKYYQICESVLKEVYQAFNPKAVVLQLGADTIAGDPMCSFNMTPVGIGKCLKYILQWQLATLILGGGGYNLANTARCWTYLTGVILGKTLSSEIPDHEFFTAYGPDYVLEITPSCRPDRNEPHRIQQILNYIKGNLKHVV
The experiment in a line: Inhibition of HDAC8 (unknown origin) preincubated for 2 hrs followed by Fluor-de-Lys substrate addition measured after 30 mins by fluorescence assay.

The next test has as its target Histone deacetylase 5 (Homo sapiens, UniProt Q9UQL6). The experiment in a line: Inhibition of human recombinant C-terminal His-tagged HDAC5 expressed in baculovirus infected insect cells preincubated for 2 hrs followed by Fluor-de-Lys substrate addition measured after 30 mins by fluorescence assay. The test is classed as cell-based.

The structures appear in SMILES notation.

One may read the IC50 as the midpoint of a concentration-inhibition curve. Regarding `Cc1ccc(C(=O)NCCCCCC(=O)Nc2ccccc2N)cc1`, the IC50 on Histone deacetylase 7 is over 180 µM; on Histone deacetylase 4, over 180 µM; against Histone deacetylase 8 it was 10.7 µM; at Histone deacetylase 5, over 180 µM.

(Values after ChEMBL document CHEMBL4033774, “Class I HDAC Inhibitors: Potential New Epigenetic Therapeutics for Alcohol Use Disorder (AUD)” (J Med Chem, 2018).)
